Laboratory results published in PubChem BioAssay AID651640 (Broad Institute, 2012).
Values joined by “and” are separate entries in the source; they are usually repeats but may differ in a detail not shown here. Identical values can stand only once. The campaign covered roughly 350,000 compounds. About 6,000 (1.7%) were called active. This list was built around the results that the source calls inconclusive (neither active nor inactive); the mix of calls is not that of the screen. Cut-off read from the data, not from the text of the source: active = CPE inhibition above about 20% (passing the limit was not always enough); inconclusive = no clear call, values can overlap the other calls; tested in BHK-21 cells.

Test: protection of cells from dengue 2 killing – plate reader, single concentration, primary screen (AID 651640);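 note: 0% = median of neutral control wells and 100% = median of positive control wells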
Settings: DENV2-infected cells, cytopathic effect rescue, at 9.99 µM, hits give high values

SMILES	CPE inhibition
C[C@H]1CN([C@@H](C)CO)C(=O)CCCn2cc(nn2)CO[C@H]1CN(C)S(=O)(=O)c1ccc2c(c1)OCCCO2	active: 30.8%
C[C@H](CO)N1C[C@H](C)[C@@H](CN(C)Cc2ccncc2)OCCCC[C@H](C)Oc2ccc(N(C)C)cc2C1=O	active: 30.9%
Nc1c(C(=O)NCc2ccco2)c2nc3ccccc3nc2n1CCc1ccccc1	inactive: -5.27%
O=C(NCc1ccccc1)C1c2ccccc2OCC(=O)N1CCc1c[nH]c2ccccc12 (centres undefined)	inconclusive: 26.3%
O=C(O)[C@@H]1C[C@@H](O)CN1	inconclusive: 22.1%
C[C@H]1CN([C@@H](C)CO)C(=O)c2cccc(NC(=O)CCCCCC(=O)Nc3ccccc3N)c2O[C@H]1CN(C)S(=O)(=O)c1cccs1	active: 54.8%
CC(=O)Nc1ccc(NC(=O)COC(=O)c2ccc(Cl)nc2)cc1	inconclusive: 25%
O=S(=O)(NCC[C@@H]1CC[C@@H](NS(=O)(=O)c2cccc(F)c2)[C@H](CO)O1)c1cccc(F)c1	inconclusive: 60.5%
COc1ccc(NC(=O)N(C)C[C@@H]2Oc3ccc(NC(=O)Nc4ccc(C(F)(F)F)cc4)cc3C(=O)N([C@H](C)CO)C[C@H]2C)cc1	inconclusive: 71.4%
Cc1ccc(S(=O)(=O)N2CC[C@H]3[C@@H](CO)N(C)c4ccc(-c5ccc(C#N)cc5)cc4[C@H]32)cc1	inconclusive: 71.7%
COc1ccc(OC)c(NC(=O)CSc2nnc(-c3cccnc3)s2)c1	inconclusive: 20.1%
CNC[C@H]1Oc2cc(C#CC3CCCC3)ccc2S(=O)(=O)N([C@H](C)CO)C[C@@H]1C	active: 49.1%
N#C[C@H]1[C@H](c2ccccc2-c2ccccc2F)[C@@H](CO)N1C(=O)C1CC1	active: 21.5%
OC[C@@H]1CN(Cc2ccccc2)C[C@H](n2cnc3c(NCc4ccncc4)ncnc32)O1	inconclusive: 21.1%
O=C1CC(C(=O)O)S/C(=N\NC(=O)c2ccc(F)cc2)N1 (centres undefined)	inconclusive: 49.8%
COc1cccc(C#Cc2ccc3c(c2)O[C@H](CN(C)C)[C@@H](C)CN([C@H](C)CO)S3(=O)=O)c1	inactive: -10%
COC(=O)C1=CN(c2ccc(C(C)(C)C)cc2)C(N)=C(C#N)C1c1cccc2ccccc12 (centres undefined)	inconclusive: 36.7%
CC(=O)N[C@@H]1CC[C@@H](CC(=O)NCc2ccc(Cl)cc2)O[C@@H]1CO	inactive: -0.675%
O=C(COC(=O)c1cc(Cl)ccc1O)c1ccc2c(c1)OCO2	inconclusive: 30.7%
COc1cccc(-c2cn(CC[C@H]3CC[C@H](NC(=O)CN(C)C)[C@@H](CO)O3)nn2)c1	inactive: -6.03%
Cc1ccc(-c2cc(-c3ccccc3)nc(NN)n2)cc1	inconclusive: 39.7%
COc1ccc(Cl)cc1C(=O)NC1CC(C)(C)NC(C)(C)C1	inconclusive: 41%
CCNC(=O)C1(C)CCN(Cc2ccc(C#N)cc2)C1 (centres undefined)	inconclusive: 81.8%
O=C(NC1CCN(Cc2ccccc2)CC1)c1ccc(CS(=O)c2ccccc2Cl)o1 (centres undefined)	active: 70.4%
CC1CN(CCCCSc2ccccc2)CC(C)O1 (centres undefined)	inconclusive: 24%

SMILES	CPE inhibition
COc1cccc(NC(=O)N(C)C[C@@H]2Oc3ncc(C4=CCCCC4)cc3C(=O)N([C@@H](C)CO)C[C@@H]2C)c1	inconclusive: 27.9%
CCCc1nn(C)c2c(=O)[nH]c(-c3cc(S(=O)(=O)N4CCN(C)CC4)ccc3OCC)nc12	inconclusive: 34.4%
O=C(Nc1cc(F)ccc1F)N1CC(=O)N2[C@H](CO)[C@@H](c3ccc(-c4ccccc4)cc3)[C@H]2C1	inconclusive: 23.5%
CN(C)c1nc(Oc2ccc(OCCOc3ccccc3)nn2)nc(N(C)C)n1	inactive: -2.66%
COc1cc(O)c(C(=O)/C=C/c2ccccc2)c(OC)c1	inconclusive: 23.1%
CC(=O)Nc1ccc(C(=O)CN2C(=O)NC3(CCOc4ccccc43)C2=O)c(F)c1 (centres undefined)	inconclusive: 21.2%
C/C=C/c1ccc([C@H]2[C@H](CO)N3CCCCN(C(=O)Nc4ccc(F)cc4)C[C@@H]23)cc1	inconclusive: 34.8%
O=C(NN=C1CCCCCC1)c1ccc(Cl)s1	inconclusive: 59.1%
C[C@H]1CN([C@@H](C)CO)S(=O)(=O)c2ccc(C#CC3CCCC3)cc2O[C@H]1CN(C)C(=O)Cc1ccncc1	inconclusive: 49.6%
Cc1noc(C)c1S(=O)(=O)Nc1cccc2c1O[C@@H](CN(C)S(=O)(=O)c1ccc(F)cc1)[C@@H](C)CN([C@H](C)CO)C2=O	inactive: 0.627%
CCCNC(=O)N(C)C[C@@H]1Oc2ncc(Br)cc2C(=O)N([C@H](C)CO)C[C@H]1C	inconclusive: 37.2%
O=C(CC1CC1)N1CC2(C1)[C@H](c1ccccc1)[C@H](CO)N2S(=O)(=O)Cc1ccccc1	inactive: 0.132%
O=C(/C=C/c1ccc(Cl)cc1)NC(=S)Nc1ccccc1C(=O)O	active: 23.4%
COc1cncc(-c2cnc3sc(NCCc4ccccn4)nn23)c1	inconclusive: 51%
CC(C)NC(=O)N(C)C[C@@H]1Oc2c(NC(=O)CCCCCC(=O)Nc3ccccc3N)cccc2C(=O)N([C@@H](C)CO)C[C@H]1C	active: 24.9%
COc1ccc(NC(=O)c2cc(-c3ccc(C)o3)nc3ccccc23)cc1	inconclusive: 23%
O=C(Cn1cc2c(n1)CCCCC2)N1CCCCC1	inconclusive: 25.6%
C[C@@H]1CN([C@H](C)CO)C(=O)CCCn2nncc2CO[C@H]1CN(C)C(=O)Nc1cccc2ccccc12	inactive: -8.18% and inactive: -13.1%
COC(=O)c1ccc(OCC(O)CN2CCC(C)CC2)cc1 (centres undefined)	inconclusive: 45%
O=C(NCCN1CCOCC1)c1ccc2c(c1)N(Cc1ccc(F)cc1)C(=O)c1ccccc1S2(=O)=O	inconclusive: 31.1%
CCO[C@H]1OC(C(=O)NCc2ccccc2)=C[C@@H](C2CC2)[C@@H]1CCCO	inconclusive: 74.7%
C[C@H](CO)N1C[C@H](C)[C@H](CN(C)C(=O)Nc2ccc(F)cc2)OCCCC[C@H](C)Oc2ccc(NC(=O)NC3CCCCC3)cc2C1=O	inconclusive: 26.5%
Cc1ccccc1NC(=O)Cn1nc(C)n2cccc2c1=O	inconclusive: 23.5%
Nc1nonc1-n1nnc(C(=O)N/N=C/c2cccc(Cl)c2)c1CN1CCCCCC1	inactive: 2.67%
COc1ccc(N(C(=O)CNC(=O)c2cccs2)C(C(=O)NCC2CCCO2)c2ccccc2)cc1OC (centres undefined)	inconclusive: 20.9%

SMILES	CPE inhibition
COc1cc(C)nc(N2CCC(C(=O)NCC3CCCO3)CC2)n1 (centres undefined)	active: 43.6%
C[C@H]1CN([C@@H](C)CO)C(=O)c2cccc(NC(=O)c3nc4ccccc4s3)c2O[C@H]1CN(C)Cc1ccc(C(F)(F)F)cc1	inconclusive: 25.7%
Cc1noc(C)c1NC(=O)N(C)C[C@H]1OCCCC[C@@H](C)Oc2ccc(NS(=O)(=O)c3ccccc3)cc2C(=O)N([C@@H](C)CO)C[C@H]1C	inconclusive: 37.2%
Cc1cccc(-c2nc(Nc3cccc(O)c3)c3ccccc3n2)c1	inconclusive: 35.6%
C[C@@H]1CCCCO[C@H](CN(C)Cc2ccc(Cl)c(Cl)c2)[C@@H](C)CN([C@@H](C)CO)C(=O)c2cc(NS(=O)(=O)c3ccccc3)ccc2O1	active: 24.2%
O=C(CC(=O)Nc1ccccc1C(F)(F)F)Nc1ccccc1C(F)(F)F	inactive: -2.24%
COC(=O)C[C@H]1CC[C@@H](NC(=O)c2ccccc2)[C@H](CO)O1	inactive: -8.38%
N#Cc1ccc(-c2ccc3c(c2)[C@H]2[C@H](CCN2Cc2ccc4c(c2)OCO4)[C@H](CO)N3)cc1	inconclusive: 55.1%
Nc1ccc(C#Cc2ccc3c(=O)c4ccccc4oc3c2)cc1	inactive: -10.2%
Cc1ccc(-c2nc(NC(=O)c3cc(C(C)(C)C)nn3C)sc2C)cc1Cl	active: 54.5%
C[C@@H]1CN([C@@H](C)CO)S(=O)(=O)c2ccc(C3=CCCC3)cc2O[C@H]1CN(C)C(=O)Cc1ccncc1	inactive: 0.052%
Cc1cccc(C)c1NC(=O)CNC(=O)c1ccc(S(=O)(=O)NCc2ccco2)cc1	inconclusive: 24.3%
O=C1C=C(c2ccc(Cl)c(C(F)(F)F)c2)C[C@@H](c2ccc(Cl)cc2)C1	inconclusive: 58.8%
Cc1ccc(S(=O)(=O)N2CCCCC2)cc1NC(=O)c1ccc2c(=O)n3c(nc2c1)CCCCC3	inconclusive: 57.3%
O=C(C[C@H]1CC[C@@H](NC(=O)C2CC2)[C@H](CO)O1)NCCCN1CCOCC1	inactive: -11.9%
Cc1cc(-c2ccco2)n(CC(=O)NCc2ccco2)n1	inconclusive: 24%
O=C(C[C@@H]1CC[C@H](NC(=O)CC2CC2)[C@@H](CO)O1)NCC(F)(F)F	inconclusive: 22.5%
Cc1ccc(C)c(NC(=O)C2CC(O)CN2C(=O)Oc2ccccc2)c1 (centres undefined)	inactive: -0.754%
CC1SCC(NC(=O)c2cccc(Cl)c2)CS1 (centres undefined)	inactive: 3.75%
Cc1ccc(C)c(Oc2cc(F)nc(N)n2)c1	inconclusive: 35.9%
Cc1ccc(S(=O)(=O)N[C@@H]2C=C[C@H](CC(=O)N3CCN(c4ccccc4)CC3)O[C@@H]2CO)cc1	inactive: 0.234%
O=C(NCc1cccnc1)C(=O)NCC(c1ccco1)N1CCN(c2ccccc2)CC1 (centres undefined)	active: 21%
COc1ccc2c3c([nH]c2c1)[C@@H](CO)N(C(=O)c1ccccn1)CC31CN(C(=O)C2CCCC2)C1	active: 24.4%
Cc1cccc(CSCc2ccc(C(=O)NCC3CCCO3)o2)c1 (centres undefined)	inconclusive: 20.9%
